Some of the results follow. Shown are side measurements of this screen, not its main read-out; they come without a call. Most of these compounds were active or inconclusive in the main read-out, so they are no random draw. The note in brackets gives the kind of curve behind each potency; many fits are weak.

The test can be described thus: IkB Signaling. To be noted: ABC-DLBCL IkBa-CBG/CBR dual luciferase ratio (green luciferase fused to IkBa over red control in OCI-Ly3 lymphoma cells), 4 h; measured here: control luc red channel unless noted. An outline of the steps:
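In this assay, an IκBα–CBG68 fusion accumulates when IKK-driven degradation is blocked; native CBR normalizes for cell number. OCI-Ly3 cells were treated 4 h with compound and doxycycline, then green and red light read after Chroma-Glo addition.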
By AC50 is commonly meant the concentration at which the activity in the assay is half-maximal. `N#C/C(=C(/O)COC(=O)CCC1CCCCC1)c1nc2ccccc2[nH]1`: the AC50 was 25.1 µM [rising, single point] [measured here: IkB-luc green channel].
As for `COc1ccccc1-c1cc(C(=O)NCc2ccccc2)no1`, the AC50 was 5.01 µM [falling, full curve].
As for `CCOC(=O)c1c(-c2ccc(OC)cc2)oc2ccc(OCc3ccc(C(=O)OC)cc3)cc12`, the AC50 is 12.6 µM [falling, partial curve].
Consider `CCNc1c(NC(=O)c2cc(OCC)c(OCC)c(OCC)c2)c(=O)oc2ccccc12`, for which the AC50 was 15.8 µM [falling, partial curve].
As for `CC1(C)Cc2c(sc3c2c(=N)n(Cc2ccco2)c(=O)n3CC(=O)Nc2ccc(Cl)cc2)CO1`, the figure is 3.98 µM [falling, full curve].
On to `CC(C)C(OC(=O)c1cc2occc2n1C)C(=O)NCc1ccc2c(c1)OCO2` (stereo unspecified), for which the AC50 was 15.8 µM [falling, partial curve].
Consider `COc1cccc(NC(=O)CN2CCN(S(=O)(=O)c3ccc(C(C)C)cc3)CC2)c1`, for which the AC50 was 12.6 µM [falling, partial curve].
As for `Cc1ccc2oc(-c3ccc(C)c(NC(=O)/C=C/c4ccc(Cl)cc4)c3)nc2c1`, the figure is 2 µM [falling, full curve].
As for `Cc1cc(C)cc(NC(=O)Cn2cc(C(=O)c3cccs3)c3ccccc32)c1`, the figure is 3.98 µM [falling, full curve]; as for `COc1ccc(Nc2c(-c3ccc(C)o3)nc3cc(C)ccn23)cc1`, 2 µM [falling, partial curve]; as for `CCOc1ccc(N2CC(NC(=O)C3CCCCC3)CC2=O)cc1` (stereo unspecified), 6.31 µM [falling, single point].
`Cc1cccc(C)c1-n1ncc(C(=O)NC2CCCC2)c1C1CCN(C(=O)OC(C)(C)C)CC1`: the AC50 was 10 µM [falling, partial curve].
As for `O=C(c1ccc2c(c1)CCN2S(=O)(=O)c1ccc(Cl)cc1)N1CCN(c2ccc(F)cc2)CC1`, the AC50 is 10 µM [falling, partial curve].
For the compound `CC(=O)O[C@]1(C(C)=O)CC[C@H]2[C@@H]3C[C@H](C)C4=CC(=O)CC[C@]4(C)[C@H]3CC[C@@]21C`, the AC50 was 12.6 nM [rising, full curve] [measured here: IkB-luc green channel].
With `O=C(COc1ccc(Cl)cc1Cl)Nc1cccc2cccnc12` the figure was 0.794 µM [rising, full curve]; with `Cc1nc(NCc2ccc3c(c2)OCO3)c2oc3ccccc3c2n1`, 12.6 µM [falling, partial curve].
For `Nc1c(C(=O)NCC2CCCO2)c2nc3ccccc3nc2n1-c1ccccc1` (stereo unspecified), the AC50 is 15.8 µM [falling, partial curve].
As for `O=C(NCCc1ccc(Cl)cc1)c1ccc2c(c1)N(Cc1ccc(Cl)cc1)C(=O)CS2`, the AC50 is 3.16 µM [falling, full curve].
With `COCCCNC(=O)CCn1c(=O)c2ccccc2n(CC(=O)Nc2cc(Cl)ccc2OC)c1=O` the figure was 0.0126 µM [rising, full curve, poor fit].
With `CCN(Cc1ccccc1)Cc1c(O)ccc2oc(C)c(C(=O)Nc3ccc(C)cc3C)c12` the figure was 12.6 µM [falling, partial curve]; with `Cc1cccc(N2CCn3c2nc2c3c(=O)n(C/C=C/c3ccccc3)c(=O)n2C)c1`, 12.6 µM [falling, partial curve].
As for `CCCCN(CC)c1nc(-c2ccccc2F)nc2ccccc12`, the figure is 12.6 µM [falling, single point].
On to `COc1ccc(-c2cc(C(=O)N3CCN(c4ccccc4)CC3)no2)cc1`, for which the AC50 is 0.794 µM [falling, full curve].
As for `CCc1nnc(NC(=O)c2nc(SCc3ccccc3F)ncc2Cl)s1`, the figure is 25.1 µM [falling, single point].
With `CCCCOc1ccc(Cn2c(=O)oc3ccc(C)cc32)cc1OC` the figure was 20 µM [falling, partial curve]; with `COc1ccc2c(c1)c(=O)c(C(=O)c1ccc(F)cc1)cn2CC(=O)Nc1ccc2c(c1)OCO2`, 39.8 µM [rising, single point] [measured here: IkB-luc green channel]; with `Cc1ccc(S(=O)(=O)N(CC(=O)NCCSc2ccc(Cl)cc2)c2ccccc2C)cc1`, 10 µM [falling, partial curve].
As for `COc1ccc(Cl)cc1C(=O)Nc1nnc2n1CCS2`, the AC50 is 0.158 µM [falling, full curve, poor fit].
With `CN(Cc1ccccc1)C(=O)CSc1nc(-c2ccc(F)cc2)cc(C(F)(F)F)n1` the figure was 6.31 µM [falling, partial curve]; with `CCCC(CCC)C(=O)NC1CC(=O)N(c2ccc3c(c2)OCCO3)C1` (stereo unspecified), 3.98 µM [rising, partial curve].
With `COc1ccc(NC(=O)C2CCCN(c3nnc(C)c4c(C)n(-c5ccccc5)nc34)C2)cc1Cl` (stereo unspecified) the figure was 15.8 µM [falling, partial curve]; with `COc1ccccc1-n1c(CNC(=O)c2ccco2)nnc1SCC(=O)Nc1ccc(F)cc1`, 1.26 µM [falling, full curve]; with `COCCOC(=O)c1c(-c2ccccc2)c(-c2ccccc2)nn(C)c1=O`, 1.26 µM [rising, partial curve].
With `CCOc1ccc(CC(=O)Nc2c(C(=O)c3ccccc3)oc3ccc(OC)cc23)cc1OCC`, the AC50 was 10 µM [rising, partial curve, poor fit].
Regarding `O=C(Nc1ccc(-c2noc(CCc3ccccc3)n2)cc1)c1ccco1`, the AC50 is 10 µM [falling, partial curve].
Regarding `CN(Cc1ccccc1)S(=O)(=O)c1ccc(C(=O)Nc2nnc(C3CC3)o2)cc1`, the AC50 was 12.6 µM [falling, partial curve].
On to `C=C(C)COc1ccc(-c2nc(N)ncc2-c2ccc(OC)cc2)c(O)c1`, for which the AC50 is 15.8 µM [falling, partial curve].
Take `COCCSc1nnc(NS(=O)(=O)Cc2ccccc2)s1`: the AC50 was 1.58 µM [falling, partial curve].
For `Nc1c(C(=O)NCCN2CCOCC2)c2nc3ccccc3nc2n1-c1ccccc1`, the AC50 was 15.8 µM [falling, partial curve].
As for `Cc1cc(NS(=O)(=O)c2ccc3oc(=O)c4ncn(C)c4c3c2)ccc1Br`, the AC50 is 25.1 µM [falling, single point].
As for `Cc1nc2ccn(Cc3ccco3)c(=O)c2cc1C(=O)N1CCN(c2ccc(F)cc2)CC1`, the figure is 20 µM [falling, partial curve]; as for `COc1cccc(CNC(=O)C(C)n2c(=O)cc(-c3ccccc3)c3c(C)nn(C)c32)c1` (stereo unspecified), 12.6 µM [falling, single point]; as for `O=C(Cn1[nH]c(=O)c2ccccc2c1=O)N1CC=C(c2ccccc2)CC1`, 15.8 µM [falling, partial curve].
With `COc1cccc(C(=O)Nc2ccc3oc(-c4cccc5c(Br)cccc45)nc3c2)c1` the figure was 3.98 µM [falling, full curve].
As for `Cc1ccc(Nc2nnc(-c3ccc(C)c(S(N)(=O)=O)c3)c3ccccc23)cc1`, the figure is 12.6 µM [falling, partial curve].
As for `CCCOC(=O)c1ccc(-c2c(C)noc2-c2ccc(OC)cc2O)o1`, the AC50 is 20 µM [falling, partial curve].
`CCc1ccccc1N(C)C(=O)c1ccc2c(=O)n3c(nc2c1)CCCCC3`: the AC50 was 20 µM [falling, single point].
As for `COc1ccc(N2CCN(C(=O)CCc3c(C)nc4cc(-c5ccc(OC)cc5OC)nn4c3C)CC2)cc1`, the figure is 0.794 µM [falling, full curve]; as for `CN(C)S(=O)(=O)c1ccc(C(=O)NCCSc2c(-c3ccc(Cl)cc3)[nH]c3ccccc23)cc1`, 0.631 µM [falling, full curve]; as for `c1ccc(N2CCN(c3nnc(Cc4cccnc4)c4ccccc34)CC2)nc1`, 20 µM [falling, partial curve].
With `O=C(CSc1nc(-c2ccc(F)cc2)[nH]c1-c1ccc(F)cc1)Nc1ccc2c(c1)OCCO2` the figure was 7.94 µM [falling, partial curve].
Turning to `Cc1ccc(C)c(N2CCN(C(=O)c3cnn(-c4ccccc4Cl)c3C3CCN(C(=O)OC(C)(C)C)CC3)CC2)c1`, the AC50 was 15.8 µM [falling, partial curve].
On to `CCOc1ccc(CC(=O)NCC(c2cccs2)S(=O)(=O)c2ccc(F)c(C)c2)cc1` (stereo unspecified), for which the AC50 was 15.8 µM [falling, single point].
With `CCN(CC)c1nc(N)c2c(N)nc3c(c2c1C#N)CC(c1ccccc1)O3` (stereo unspecified) the figure was 25.1 µM [falling, partial curve]; with `O=C(Nc1ncc(Cc2ccccc2)s1)c1cccs1`, 10 µM [falling, partial curve]; with `CCS(=O)(=O)c1cccc(C(=O)Nc2ccc(-c3nc4ccccc4s3)c(O)c2)c1`, 12.6 µM [rising, partial curve].
With `Cc1cccc(NC(=O)Cn2c(=O)c3cccn3c3ccccc32)c1C` the figure was 15.8 µM [falling, partial curve].
Take `O=C1NCCCC1C(=O)Nc1cccc(C(F)(F)F)c1` (stereo unspecified): the AC50 was 15.8 µM [rising, partial curve].
As for `CC1CCN(C(=O)Cn2c(SCC(=O)Nc3ccc(F)cc3)nc3ccccc32)CC1`, the AC50 was 20 µM [falling, partial curve].
With `COc1ccc(OC)c(CNC(=O)CSc2c3c(nc4cc(Cl)ccc24)CCCC3)c1` the figure was 25.1 µM [falling, single point]; with `Cc1cc(S(=O)(=O)Nc2ccc(O)c(Sc3nc4ccccc4s3)c2)ccc1Cl`, 25.1 µM [falling, partial curve].

The values above are taken from PubChem BioAssay AID445 (National Center for Advancing Translational Sciences (NCATS), 2006).
